{"source": "PubChem BioAssay AID504467", "about": "(National Center for Advancing Translational Sciences (NCATS), 2011)", "note": "In all, about 330,000 compounds went through this assay and about 7,700 (2.3%) were called active. The shares of active, inactive and inconclusive entries below differ from those in the screen. The call rests on the fitted dose curve; in most records, active means well fitted inhibition curve with a large enough effect; inconclusive means small, poorly fitted or top-dose-only effect, or effect the other way; inactive means flat fitted curve, though single readings scatter. Potencies of inconclusive entries are doubtful fits and often do not repeat. Potency means the concentration at half of the fitted maximal effect.", "data": [{"test": "qHTS screen for small molecules that inhibit ELG1-dependent DNA repair in human embryonic kidney (HEK293T) cells expressing luciferase-tagged ELG1; further: nearly all actives have a fitted effect of over 55% in size", "details": "HEK293T ELG1-luciferase reporter, luminescence, 16 h, DNA damage induced by 5-fluorouridine; series mostly up to 46.1 µM", "procedure,_shortened": "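In this reporter screen, reduction of luminescence relative to DMSO vehicle indicated activity. Compounds and 5-fluorouridine were added together to 2,000 cells per well, incubated for 16 hr at 37 °C, then developed with ONE-Glo.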", "values": [{"smiles": "Nc1c(S(=O)(=O)c2cccs2)c2nc3ccccc3nc2n1CCc1ccccc1", "Potency": "inconclusive: 29.1 µM [inhibitor, single point]"}, {"smiles": "O=C1c2ccccc2C(=O)N1CSc1nnc(Nc2ccccc2F)s1", "Potency": "inconclusive: 18.4 µM [activator, single point]"}, {"smiles": "COc1ccc(C)c2sc(NC(=O)c3cccc(N4C(=O)CCC4=O)c3)nc12", "Potency": "inactive"}, {"smiles": "O=[N+]([O-])c1cccnc1NCc1cccs1", "Potency": "inconclusive: 20.6 µM [activator, single point]"}, {"smiles": "CCOc1[nH]n(-c2ccccc2)c(=O)c1C=Nc1ccccc1", "Potency": "inconclusive: 18.3 µM [inhibitor, single point]"}, {"smiles": "CC(C)C1Oc2ccccc2N(CC(=O)N(C)C2CCCCC2)C1=O", "note": "(stereo unspecified)", "Potency": "inactive"}, {"smiles": "O=C(NCc1ccc(F)cc1)C1CCC(CNc2c(N3CCCCC3)c(=O)c2=O)CC1", "note": "(stereo unspecified)", "Potency": "inconclusive: 18.3 µM [inhibitor, partial curve]"}, {"smiles": "CCCCc1c(C)c2cc(C)ccc2[nH]c1=O", "Potency": "inconclusive: 20.6 µM [activator, partial curve, poor fit]"}, {"smiles": "CCC(C(=O)NC1CCCC1)N(C(=O)c1snc(C(N)=O)c1N)c1ccc(OC)cc1", "note": "(stereo unspecified)", "Potency": "inactive"}, {"smiles": "CCc1ccc(N(CC(=O)NC2CCCCC2)C(=O)CCC(=O)Nc2ccccn2)cc1", "Potency": "inconclusive: 25.9 µM [activator, partial curve, poor fit]"}, {"smiles": "CCOC(=O)C(C(C)=O)C(c1ccc(OCCC(C)C)cc1)C(C(C)=O)C(=O)OCC", "note": "(stereo unspecified)", "Potency": "inactive"}, {"smiles": "CC1CCN(CC(=O)N2CCN(c3ccccc3)CC2)CC1", "Potency": "inactive"}, {"smiles": "Cc1nc2cc(NC(=O)c3ccc([N+](=O)[O-])s3)ccc2s1", "Potency": "inconclusive: 8.2 µM [activator, partial curve]"}, {"smiles": "Cc1ccc(C(=O)CSc2nnc(-c3ccco3)n2C)cc1", "Potency": "inactive"}, {"smiles": "COc1cc(C)ccc1OCc1cc(C(=O)N2CCCCCCC2)no1", "Potency": "inconclusive: 20.6 µM [activator, partial curve]"}, {"smiles": "O=C(NCCc1ccccc1)c1ccc(Cl)nc1", "Potency": "inconclusive: 7.31 µM [activator, partial curve]"}, {"smiles": "Cc1cccc(N2CCN(C(=O)N3CCCCC3)CC2)c1C", "Potency": "inactive"}, {"smiles": "CC(=O)c1cccc(NC(=O)COc2cc3oc(=O)c(CC(C)O)c(C)c3cc2Cl)c1", "note": "(stereo unspecified)", "Potency": "active: 4.11 µM"}, {"smiles": "COCCCN1C(=O)c2ccc(C(=O)OCC(=O)N(CCC#N)c3cc(C)cc(C)c3)cc2C1=O", "Potency": "inconclusive: 32.6 µM [activator, partial curve, poor fit]"}, {"smiles": "C/C(=N/NC(=O)C(O)(c1ccccc1)c1ccccc1)c1ccc([N+](=O)[O-])o1", "Potency": "inconclusive: 29.1 µM [inhibitor, single point]"}, {"smiles": "COc1cc(OC)cc(C(=O)NC2=NCCS2)c1", "Potency": "inconclusive: 20.6 µM [activator, single point]"}, {"smiles": "COc1ccc(-c2oc3ncn(CCN4CCOCC4)c(=N)c3c2-c2ccc(OC)cc2)cc1", "Potency": "active: 20.6 µM"}, {"smiles": "CN(C)/C=C(\\C#N)C(=O)Nc1ccccc1", "Potency": "inconclusive: 23.1 µM [activator, single point]"}, {"smiles": "Cc1cccc(NC(=O)Cn2cc(C(=O)c3ccco3)c3ccccc32)c1", "Potency": "inconclusive: 29.1 µM [inhibitor, single point]"}, {"smiles": "Cc1ccc(C)c(OCC(=O)N/N=C/c2c(C)nn(-c3ccccc3)c2Cl)c1C", "Potency": "inactive"}, {"smiles": "CC1CCCN(C(=O)COC(=O)COc2ccc(Cl)cc2)C1", "note": "(stereo unspecified)", "Potency": "inactive"}, {"smiles": "COc1ccc(N=c2oc3cc(O)ccc3cc2C(=O)Nc2ccccn2)cc1OC", "Potency": "active: 4.11 µM"}, {"smiles": "Cc1ccccc1-n1c(SCC(=O)c2c(N)n(C)c(=O)n(C)c2=O)nnc1-c1cccnc1", "Potency": "inconclusive: 8.2 µM [inhibitor, partial curve]"}, {"smiles": "N#C/C(=C/c1ccco1)c1nc2ccccc2s1", "Potency": "inconclusive: 5.17 µM [activator, partial curve]"}, {"smiles": "CCCCCC(=O)NC(=S)Nc1ccc(NC(=O)c2ccco2)cc1", "Potency": "inactive"}, {"smiles": "O=Cc1ccc(OCc2ccccn2)cc1", "Potency": "inconclusive: 16.4 µM [activator, partial curve]"}, {"smiles": "COc1ccc(NC(=O)C2Cc3ccccc3C(=O)O2)cc1", "note": "(stereo unspecified)", "Potency": "inconclusive: 18.3 µM [activator, partial curve, poor fit]"}, {"smiles": "COc1ccc(C(=O)NC(=S)Nc2ccc(CN3CCOCC3)cc2)cc1Cl", "Potency": "inconclusive: 16.4 µM [inhibitor, single point]"}, {"smiles": "Cc1oc2ccc(O)cc2c1C(=O)OC(C)C", "Potency": "inconclusive: 23.1 µM [activator, single point]"}, {"smiles": "Oc1ccccc1CNc1cccc2cccnc12", "Potency": "inconclusive: 18.3 µM [activator, single point]"}, {"smiles": "Cc1ccc(-c2nc(C#N)c(NCc3ccco3)o2)cc1", "Potency": "inconclusive: 9.2 µM [activator, partial curve, poor fit]"}, {"smiles": "CN(Cc1ccc(Cl)cc1)C(=O)c1ccc(S(=O)(=O)NCc2ccco2)cc1", "Potency": "inactive"}, {"smiles": "CCCCS(=O)(=O)/C=C\\C=C/S(=O)(=O)CCCC", "Potency": "active: 8.2 µM"}, {"smiles": "Cn1c(=O)c2c(nc(CN3CCN(c4ccccc4)CC3)n2CCN2CCOCC2)n(C)c1=O", "Potency": "inconclusive: 20.6 µM [inhibitor, single point]"}, {"smiles": "CCCn1nnc(NC(=O)c2ccc(-c3cccc(Cl)c3)o2)n1", "Potency": "inconclusive: 11.6 µM [activator, partial curve]"}, {"smiles": "Cc1cc(C)nc(NC2=NCC(=O)N2c2cc(Cl)cc(Cl)c2)n1", "Potency": "inactive"}, {"smiles": "CCOC(=O)c1ccc(NC(=O)CSc2ncccn2)cc1", "Potency": "inconclusive: 29.1 µM [activator, partial curve, poor fit]"}, {"smiles": "C/C=C\\C=C/C(=O)Nc1cccc(C2=NOC3(C2)C[C@@H](C(N)=O)N(C(=O)c2ccc(Cl)cc2)C3)c1", "note": "(stereo partly specified)", "Potency": "inactive"}, {"smiles": "O=C(CN1CCN(CC(=O)Nc2ccccc2Cl)CC1)Nc1ccc(F)c(F)c1", "Potency": "inconclusive: 29.1 µM [inhibitor, single point]"}, {"smiles": "CCC(C)(C)NC(=O)c1cccc(NC(=O)C(C)C)c1", "Potency": "inactive"}, {"smiles": "C/C(=N\\NC(=O)Cc1cccn1C)c1ccc([N+](=O)[O-])cc1", "Potency": "inconclusive: 23.1 µM [activator, single point]"}]}]}
